Experimental data as given in article PMC3511349.
These are yes or no findings as the source states them, for the method shown. In cells and extracts the contact can be indirect. Some results given as binding are weak or reduced against the parent protein; the word gives no strength. For some assays here: Where a sequence is shown, tags or fusion partners need not be part of it.

The chains behind the UniProt entries cited, without tags or fusion partners.
UniProt Q9UM11: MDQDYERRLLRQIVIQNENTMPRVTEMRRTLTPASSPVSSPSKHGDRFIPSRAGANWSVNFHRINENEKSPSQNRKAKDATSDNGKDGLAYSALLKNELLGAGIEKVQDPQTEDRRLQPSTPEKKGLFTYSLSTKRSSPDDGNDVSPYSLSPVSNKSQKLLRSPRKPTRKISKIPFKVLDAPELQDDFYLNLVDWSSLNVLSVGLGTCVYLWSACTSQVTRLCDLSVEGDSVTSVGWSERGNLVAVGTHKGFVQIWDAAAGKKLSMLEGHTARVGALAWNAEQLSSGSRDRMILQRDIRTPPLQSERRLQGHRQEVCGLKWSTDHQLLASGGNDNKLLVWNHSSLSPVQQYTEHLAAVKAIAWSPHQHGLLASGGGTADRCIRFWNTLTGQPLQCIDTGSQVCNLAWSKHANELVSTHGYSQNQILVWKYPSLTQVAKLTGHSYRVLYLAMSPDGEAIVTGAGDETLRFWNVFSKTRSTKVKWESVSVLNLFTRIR
UniProt Q9HCE7: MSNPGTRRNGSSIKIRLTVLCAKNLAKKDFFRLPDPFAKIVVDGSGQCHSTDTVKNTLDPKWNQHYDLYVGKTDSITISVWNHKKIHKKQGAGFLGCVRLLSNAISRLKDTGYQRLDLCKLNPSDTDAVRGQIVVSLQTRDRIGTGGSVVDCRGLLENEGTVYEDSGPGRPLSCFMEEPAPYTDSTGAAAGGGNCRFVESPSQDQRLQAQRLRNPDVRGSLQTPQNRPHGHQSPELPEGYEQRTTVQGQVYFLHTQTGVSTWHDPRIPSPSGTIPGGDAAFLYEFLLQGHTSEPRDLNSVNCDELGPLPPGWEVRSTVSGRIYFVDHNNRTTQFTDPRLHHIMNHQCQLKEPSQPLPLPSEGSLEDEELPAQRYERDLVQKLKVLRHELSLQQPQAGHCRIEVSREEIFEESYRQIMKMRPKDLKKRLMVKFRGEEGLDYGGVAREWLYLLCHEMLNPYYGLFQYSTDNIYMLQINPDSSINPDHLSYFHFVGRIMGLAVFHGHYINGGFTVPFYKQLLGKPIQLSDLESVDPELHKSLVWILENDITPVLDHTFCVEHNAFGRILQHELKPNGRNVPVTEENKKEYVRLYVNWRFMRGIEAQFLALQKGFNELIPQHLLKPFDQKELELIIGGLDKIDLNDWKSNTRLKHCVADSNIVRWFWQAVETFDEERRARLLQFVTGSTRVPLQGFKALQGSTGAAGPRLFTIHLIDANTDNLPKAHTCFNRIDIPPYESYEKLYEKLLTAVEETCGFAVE

Tests used:
Test in all cases: co-IP; transfected 293T cells lysed in 150 mM NaCl, 210 mM Tris pH 7.4, 1 mM EDTA, 1% NP40, 10% glycerol; antibody (Myc, HA or GFP) 4 h at 4°C, Protein A Sepharose 1 h; washed 3 times with 1 M NaCl Triton-X100 buffer and once with PBS; immunoblot
[1] = target: Myc-p250GAP (not stated (human or mouse cDNA cloned)) (UniProt A7KAX9)
[2] = target: T1, Myc-p250GAP-C (not stated (human or mouse cDNA cloned)) (UniProt A7KAX9)
T1 sequence: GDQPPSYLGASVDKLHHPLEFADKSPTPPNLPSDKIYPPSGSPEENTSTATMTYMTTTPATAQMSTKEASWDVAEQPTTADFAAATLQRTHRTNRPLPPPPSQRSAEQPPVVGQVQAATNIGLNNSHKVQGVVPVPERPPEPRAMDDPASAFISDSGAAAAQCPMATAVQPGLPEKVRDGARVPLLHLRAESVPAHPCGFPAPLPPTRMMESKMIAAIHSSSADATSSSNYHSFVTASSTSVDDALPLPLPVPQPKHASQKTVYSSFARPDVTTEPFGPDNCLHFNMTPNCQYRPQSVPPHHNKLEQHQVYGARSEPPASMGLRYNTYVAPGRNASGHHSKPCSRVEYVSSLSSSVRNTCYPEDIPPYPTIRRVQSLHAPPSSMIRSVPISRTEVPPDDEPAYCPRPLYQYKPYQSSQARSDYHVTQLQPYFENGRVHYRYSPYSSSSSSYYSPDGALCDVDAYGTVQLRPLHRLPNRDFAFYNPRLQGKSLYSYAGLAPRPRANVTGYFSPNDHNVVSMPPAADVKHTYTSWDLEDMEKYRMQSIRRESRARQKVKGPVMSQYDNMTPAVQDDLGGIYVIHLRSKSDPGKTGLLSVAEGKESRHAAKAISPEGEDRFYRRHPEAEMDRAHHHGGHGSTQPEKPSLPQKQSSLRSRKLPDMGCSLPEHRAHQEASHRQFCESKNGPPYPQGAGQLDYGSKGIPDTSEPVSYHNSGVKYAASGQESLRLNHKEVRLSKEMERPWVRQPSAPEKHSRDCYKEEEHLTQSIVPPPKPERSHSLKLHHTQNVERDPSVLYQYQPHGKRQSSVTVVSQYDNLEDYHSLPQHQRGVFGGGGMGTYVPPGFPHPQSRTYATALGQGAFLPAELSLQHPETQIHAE

HA-Cdh1 = HA-Cdh1 (UniProt Q9UM11)
HA-Smurf1 = HA-Smurf1 (UniProt Q9HCE7)

Row | Substance | binding [1] | binding [2] | binding (HA-Cdh1) | binding (HA-Smurf1)
1 | GFP-Cdh1 (from UniProt Q9UM11 1-496) | binds | binds |  | 
2 | HA-Smurf1 (from UniProt Q9HCE7 1-757) | binds |  |  | 
3 | Myc-p250GAP (from UniProt A7KAX9-2 1-1738) |  |  | binds | binds
